Data from the supplement of paper PMC10849652.
The other results are listed elsewhere or left out.

By UniProt entry, the sequences of proteins in these tests, tags left out. Where a name states a change or a piece, a line headed by the entry shows the natural chain unless it says otherwise.
UniProt Q6ZUB1: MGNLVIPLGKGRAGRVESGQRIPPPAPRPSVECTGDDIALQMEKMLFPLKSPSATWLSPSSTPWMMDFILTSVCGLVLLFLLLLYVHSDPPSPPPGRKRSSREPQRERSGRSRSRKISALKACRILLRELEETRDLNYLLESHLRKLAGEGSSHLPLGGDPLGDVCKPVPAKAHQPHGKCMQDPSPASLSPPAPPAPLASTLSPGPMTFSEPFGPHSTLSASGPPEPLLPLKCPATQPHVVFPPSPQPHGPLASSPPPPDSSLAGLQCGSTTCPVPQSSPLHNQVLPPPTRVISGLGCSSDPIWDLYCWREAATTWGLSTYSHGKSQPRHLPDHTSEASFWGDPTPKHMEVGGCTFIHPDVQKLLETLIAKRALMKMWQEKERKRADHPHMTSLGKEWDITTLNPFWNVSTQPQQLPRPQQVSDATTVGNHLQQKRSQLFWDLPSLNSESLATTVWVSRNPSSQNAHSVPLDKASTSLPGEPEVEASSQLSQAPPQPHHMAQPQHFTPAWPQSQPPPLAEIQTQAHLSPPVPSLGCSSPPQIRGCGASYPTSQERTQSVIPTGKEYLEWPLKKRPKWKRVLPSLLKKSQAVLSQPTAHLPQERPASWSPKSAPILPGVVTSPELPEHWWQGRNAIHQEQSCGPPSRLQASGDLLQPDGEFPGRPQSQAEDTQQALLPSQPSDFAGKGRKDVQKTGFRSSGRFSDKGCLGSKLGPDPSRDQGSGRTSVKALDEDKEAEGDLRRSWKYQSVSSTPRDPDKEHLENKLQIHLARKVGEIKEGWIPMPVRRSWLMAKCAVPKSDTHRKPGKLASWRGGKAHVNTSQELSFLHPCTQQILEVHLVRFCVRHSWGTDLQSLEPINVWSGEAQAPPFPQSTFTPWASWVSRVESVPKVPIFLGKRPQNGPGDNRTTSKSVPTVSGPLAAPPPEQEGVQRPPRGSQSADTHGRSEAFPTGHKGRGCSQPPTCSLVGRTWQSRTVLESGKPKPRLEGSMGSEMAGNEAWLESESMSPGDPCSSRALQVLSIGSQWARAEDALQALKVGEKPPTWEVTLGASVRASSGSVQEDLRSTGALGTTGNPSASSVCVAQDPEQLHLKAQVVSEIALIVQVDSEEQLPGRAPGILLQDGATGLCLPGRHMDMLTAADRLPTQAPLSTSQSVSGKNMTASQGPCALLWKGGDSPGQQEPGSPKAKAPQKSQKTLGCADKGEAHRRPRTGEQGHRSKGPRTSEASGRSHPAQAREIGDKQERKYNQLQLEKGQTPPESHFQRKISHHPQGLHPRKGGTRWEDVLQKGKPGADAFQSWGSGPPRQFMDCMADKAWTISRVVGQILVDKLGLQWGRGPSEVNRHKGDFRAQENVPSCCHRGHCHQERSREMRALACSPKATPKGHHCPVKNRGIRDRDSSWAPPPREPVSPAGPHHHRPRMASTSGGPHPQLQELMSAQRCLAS
UniProt O00506, whole entry, looked up: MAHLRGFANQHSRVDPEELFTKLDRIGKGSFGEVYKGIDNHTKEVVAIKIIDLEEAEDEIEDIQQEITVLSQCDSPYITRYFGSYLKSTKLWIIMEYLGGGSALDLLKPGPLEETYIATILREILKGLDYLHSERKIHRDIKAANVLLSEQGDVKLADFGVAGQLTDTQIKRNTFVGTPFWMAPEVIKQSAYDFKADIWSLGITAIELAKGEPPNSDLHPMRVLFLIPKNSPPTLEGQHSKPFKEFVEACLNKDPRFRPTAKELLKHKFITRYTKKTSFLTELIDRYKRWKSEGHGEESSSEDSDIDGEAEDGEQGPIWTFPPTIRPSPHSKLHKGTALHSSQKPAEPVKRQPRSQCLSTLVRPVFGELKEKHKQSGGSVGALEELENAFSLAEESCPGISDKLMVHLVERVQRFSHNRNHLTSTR
UniProt Q9UNL2: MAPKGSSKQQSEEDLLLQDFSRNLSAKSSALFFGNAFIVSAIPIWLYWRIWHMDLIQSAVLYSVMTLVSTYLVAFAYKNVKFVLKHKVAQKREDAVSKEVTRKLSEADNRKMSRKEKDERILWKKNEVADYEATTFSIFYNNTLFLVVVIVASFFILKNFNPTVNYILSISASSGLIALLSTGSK
UniProt O75494: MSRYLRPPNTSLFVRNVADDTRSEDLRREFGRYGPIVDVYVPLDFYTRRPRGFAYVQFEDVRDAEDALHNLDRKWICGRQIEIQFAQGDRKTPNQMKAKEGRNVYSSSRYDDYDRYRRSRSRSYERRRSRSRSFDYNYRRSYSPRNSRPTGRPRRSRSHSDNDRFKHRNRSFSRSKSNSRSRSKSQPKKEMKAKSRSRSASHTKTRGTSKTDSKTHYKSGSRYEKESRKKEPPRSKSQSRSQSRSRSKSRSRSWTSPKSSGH
UniProt Q15005: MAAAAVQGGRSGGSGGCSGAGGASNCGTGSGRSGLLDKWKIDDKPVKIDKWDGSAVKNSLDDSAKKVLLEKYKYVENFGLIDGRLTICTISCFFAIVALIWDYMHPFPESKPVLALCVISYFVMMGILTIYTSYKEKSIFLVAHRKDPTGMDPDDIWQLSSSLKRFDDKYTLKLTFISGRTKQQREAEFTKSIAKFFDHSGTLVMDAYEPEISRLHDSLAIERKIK
UniProt Q8N0X7: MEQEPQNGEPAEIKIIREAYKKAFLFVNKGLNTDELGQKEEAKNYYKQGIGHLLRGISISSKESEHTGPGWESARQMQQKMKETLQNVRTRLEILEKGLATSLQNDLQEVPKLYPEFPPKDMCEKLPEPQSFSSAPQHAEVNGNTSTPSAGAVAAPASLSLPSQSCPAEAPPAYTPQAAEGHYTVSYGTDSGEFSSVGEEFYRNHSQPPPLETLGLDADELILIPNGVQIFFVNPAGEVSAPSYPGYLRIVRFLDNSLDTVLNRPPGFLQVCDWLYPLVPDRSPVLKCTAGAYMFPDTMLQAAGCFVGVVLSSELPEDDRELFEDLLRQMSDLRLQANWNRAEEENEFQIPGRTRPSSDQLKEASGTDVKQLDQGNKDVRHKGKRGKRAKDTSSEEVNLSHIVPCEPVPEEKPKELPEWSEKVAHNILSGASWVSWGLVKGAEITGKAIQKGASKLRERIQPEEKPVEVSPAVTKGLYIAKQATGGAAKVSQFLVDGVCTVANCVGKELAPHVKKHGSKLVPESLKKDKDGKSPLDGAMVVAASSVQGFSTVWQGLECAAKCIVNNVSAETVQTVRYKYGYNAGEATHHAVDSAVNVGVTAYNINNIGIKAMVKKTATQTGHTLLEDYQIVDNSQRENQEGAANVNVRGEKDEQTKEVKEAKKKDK
UniProt P84103: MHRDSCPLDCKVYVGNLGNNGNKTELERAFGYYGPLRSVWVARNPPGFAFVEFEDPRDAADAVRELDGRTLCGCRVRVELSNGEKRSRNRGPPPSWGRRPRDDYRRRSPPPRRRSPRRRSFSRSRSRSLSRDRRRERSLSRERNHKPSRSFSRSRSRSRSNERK
UniProt P15907: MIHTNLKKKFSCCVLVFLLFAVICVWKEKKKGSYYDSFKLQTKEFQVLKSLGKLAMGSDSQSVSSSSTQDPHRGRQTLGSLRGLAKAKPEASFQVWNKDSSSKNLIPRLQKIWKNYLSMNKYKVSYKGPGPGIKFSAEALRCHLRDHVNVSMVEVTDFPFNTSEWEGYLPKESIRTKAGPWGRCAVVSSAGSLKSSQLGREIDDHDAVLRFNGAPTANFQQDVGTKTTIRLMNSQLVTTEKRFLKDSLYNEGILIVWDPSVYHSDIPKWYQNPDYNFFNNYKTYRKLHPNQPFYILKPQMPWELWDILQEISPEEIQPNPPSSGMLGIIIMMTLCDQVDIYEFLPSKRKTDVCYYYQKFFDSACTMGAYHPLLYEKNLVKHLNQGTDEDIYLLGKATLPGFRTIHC
UniProt Q16629: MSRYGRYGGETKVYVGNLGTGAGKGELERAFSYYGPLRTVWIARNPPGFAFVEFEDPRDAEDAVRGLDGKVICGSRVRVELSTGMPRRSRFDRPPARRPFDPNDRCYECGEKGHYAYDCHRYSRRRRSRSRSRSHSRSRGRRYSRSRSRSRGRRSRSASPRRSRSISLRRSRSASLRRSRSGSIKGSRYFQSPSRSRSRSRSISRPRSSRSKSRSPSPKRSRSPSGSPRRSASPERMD
UniProt O95772: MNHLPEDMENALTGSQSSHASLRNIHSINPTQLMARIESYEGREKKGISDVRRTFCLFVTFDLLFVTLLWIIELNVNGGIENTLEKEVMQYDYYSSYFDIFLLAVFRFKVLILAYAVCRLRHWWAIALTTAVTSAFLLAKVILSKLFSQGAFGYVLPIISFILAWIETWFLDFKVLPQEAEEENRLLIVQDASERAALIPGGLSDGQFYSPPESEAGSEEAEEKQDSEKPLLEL
UniProt Q9P289: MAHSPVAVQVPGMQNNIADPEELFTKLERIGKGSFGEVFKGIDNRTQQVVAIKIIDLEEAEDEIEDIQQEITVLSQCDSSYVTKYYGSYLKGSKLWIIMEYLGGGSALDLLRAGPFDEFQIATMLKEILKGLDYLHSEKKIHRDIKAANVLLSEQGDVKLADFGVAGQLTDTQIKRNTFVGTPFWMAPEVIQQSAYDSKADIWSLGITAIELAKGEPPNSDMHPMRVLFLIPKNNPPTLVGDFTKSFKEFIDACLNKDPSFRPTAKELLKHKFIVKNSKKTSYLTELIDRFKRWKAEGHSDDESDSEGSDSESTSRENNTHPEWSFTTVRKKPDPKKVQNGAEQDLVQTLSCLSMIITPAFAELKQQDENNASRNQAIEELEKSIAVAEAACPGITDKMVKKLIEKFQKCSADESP
UniProt Q08945, whole entry, looked up: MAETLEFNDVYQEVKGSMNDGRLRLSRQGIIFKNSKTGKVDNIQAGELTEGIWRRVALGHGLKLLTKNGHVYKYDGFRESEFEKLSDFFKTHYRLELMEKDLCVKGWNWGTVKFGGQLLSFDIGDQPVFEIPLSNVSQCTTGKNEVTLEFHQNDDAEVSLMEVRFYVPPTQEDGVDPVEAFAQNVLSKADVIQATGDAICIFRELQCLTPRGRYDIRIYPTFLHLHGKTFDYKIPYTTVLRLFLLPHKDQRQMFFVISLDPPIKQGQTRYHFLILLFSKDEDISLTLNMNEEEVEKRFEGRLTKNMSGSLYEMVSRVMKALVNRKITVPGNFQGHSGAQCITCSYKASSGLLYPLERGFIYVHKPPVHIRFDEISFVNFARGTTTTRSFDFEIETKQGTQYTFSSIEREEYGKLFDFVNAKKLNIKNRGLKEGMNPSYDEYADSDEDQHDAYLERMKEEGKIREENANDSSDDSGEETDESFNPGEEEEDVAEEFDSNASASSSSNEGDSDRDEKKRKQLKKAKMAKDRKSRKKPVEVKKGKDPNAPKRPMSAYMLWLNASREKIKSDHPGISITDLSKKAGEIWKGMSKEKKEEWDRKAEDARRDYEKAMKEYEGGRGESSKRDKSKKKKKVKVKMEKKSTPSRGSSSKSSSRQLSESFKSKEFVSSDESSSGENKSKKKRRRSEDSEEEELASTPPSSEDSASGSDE

How the values were obtained:
Experiment in all cases: log2 fold change, soluble protein after heating vs DMSO (PISA); higher = thermal stabilisation; K562 cells, 10 uM, 30 min; active = over 0.2 and 3.5 SD of the protein, either way, in both replicates (recomputed)
[1] = compound: CN1CCN(CCOc2cc(OC3CCOCC3)c3c(Nc4c(Cl)ccc5c4OCO5)ncnc3c2)CC1 [saracatinib]
Method in brief: (§1)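 Soluble protein was defined as the supernatant after 21,000xg for 90 min. It came from K562 cells at 2×10^6 cells/mL given 10 μM compound for 30 min, heated in aliquots for 3 min across 48°C-58°C, pooled, and extracted in PBS with 0.5% NP-40 at 4°C, and was quantified by TMTpro 16plex LC-MS/MS with equalised channel sums. Thermal stability against control samples, from duplicates, is reported as log2 fold change.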

[2] = compound: CN1CCN(c2nc(C3=C(c4c[nH]c5ccccc45)C(=O)NC3=O)c3ccccc3n2)CC1 [sotrastaurin]
Method in brief: as §1

[3] = compound: CN1CC[C@H](c2c(O)cc(O)c3c(=O)cc(-c4ccccc4Cl)oc23)[C@H](O)C1 [alvocidib]
Method in brief: as §1

[4] = compound: CNC(=O)c1ccc(Nc2ncc(C(F)(F)F)c(NCc3nccnc3N(C)S(C)(=O)=O)n2)cc1 [defactinib]
Method in brief: as §1

[5] = compound: CNCc1ccc(-c2[nH]c3cc(F)cc4c3c2CCNC4=O)cc1 [rucaparib]
Method in brief: as §1

[6] = compound: CNc1nc(-c2ccc3c(N)n[nH]c3c2)cc(N2C[C@@H](C(=O)NC3CCCCC3)CC[C@H]2C)n1
Method in brief: as §1

[7] = compound: COC(=O)N[C@@H](C)CNc1nccc(-c2cn(C(C)C)nc2-c2cc(Cl)cc(NS(C)(=O)=O)c2F)n1 [encorafenib]
Method in brief: as §1

[8] = compound: COC(=O)[C@H](CCSC)NC(=O)C1=C(C=C(C=C1)NC[C@H](CS)N)C2=CC=CC=C2
Method in brief: as §1

[9] = compound: CN1CCc2c(c3ccccc3n2Cc2ccc(C(=O)NO)cc2)C1 [Tubastatin A]
Method in brief: as §1

[10] = compound: CNC(=O)C1=CC=CC=C1NC2=NC(=NC=C2Cl)NC3=C(C=C(C=C3)N4CCOCC4)OC
Method in brief: as §1

Target | log2 fold change [1] | log2 fold change [2] | log2 fold change [3] | log2 fold change [4] | log2 fold change [5] | log2 fold change [6] | log2 fold change [7] | log2 fold change [8] | log2 fold change [9] | log2 fold change [10]
SPATA31E1 (UniProt Q6ZUB1) | inactive: -0.247 | inactive: 0.103 | inactive: 0.178 | inactive: 0.13 | inactive: -0.075 | inactive: -0.149 | inactive: 0.021 | inactive: 0.157 |  | 
STK25 (UniProt O00506) | inactive: -0.045 | inactive: 0.088 |  | inactive: -0.041 | inactive: 0.011 | inactive: -0.012 | inactive: 0.039 | inactive: 0.051 | inactive: -0.007 | inactive: -0.078
SPG11 (UniProt Q96JI7) | inactive: -0.281 | inactive: 0.055 |  | inactive: 0.151 | inactive: 0.046 | inactive: 0.119 | inactive: -0.094 | inactive: 0.069 | inactive: 0.012 | inactive: -0.156
SSR3 isoform 2 (UniProt Q9UNL2) | inactive: 0.153 | inactive: 0.083 |  | inactive: -0.006 | inactive: -0.049 | inactive: -0.052 | inactive: 0.001 | inactive: 0.086 | inactive: -0.04 | inactive: 0.006
SRSF10 (UniProt O75494) | inactive: -0.002 | inactive: 0.041 |  | inactive: 0.233 | inactive: 0.314 | inactive: 0.068 | inactive: 0.133 | inactive: 0.14 | inactive: -0.009 | inactive: -0.053
SPCS2 (UniProt Q15005) | inactive: -0.029 | inactive: -0.054 |  | inactive: -0.026 | inactive: -0.062 | inactive: 0.038 | inactive: 0.044 | inactive: 0.021 | inactive: -0.026 | inactive: 0.062
SPART (UniProt Q8N0X7) | inactive: -0.03 | inactive: -0.011 |  | inactive: -0.109 | inactive: -0.02 | inactive: -0.032 | inactive: 0.027 | inactive: -0.014 | inactive: -0.05 | inactive: 0.001
SRSF3 (UniProt P84103) | inactive: 0.019 | inactive: 0.079 |  | inactive: 0.235 | inactive: 0.257 | inactive: -0.022 | inactive: 0.023 | inactive: 0.032 | inactive: -0.026 | inactive: -0.053
STARD9 (UniProt Q9P2P6) | inactive: 0.051 | inactive: -0.316 |  | inactive: 0.144 | inactive: -0.005 | inactive: 0.103 | inactive: 0.048 | inactive: -0.03 | inactive: 0.122 | inactive: -0.344
ST6GAL1 (UniProt P15907) | inactive: -0.001 | inactive: 0.018 |  | inactive: -0.03 | inactive: 0.004 | inactive: 0.05 | inactive: 0.037 | inactive: -0.08 | inactive: 0.026 | inactive: 0.159
SRSF7 (UniProt Q16629) | inactive: -0.014 | inactive: 0.12 |  | inactive: 0.168 | inactive: 0.3 | inactive: -0.04 | inactive: 0.038 | inactive: 0.042 | inactive: 0.006 | inactive: -0.226
STARD3NL (UniProt O95772) | inactive: 0.103 | inactive: -0.004 |  | inactive: -0.007 | inactive: -0.164 | inactive: -0.052 | inactive: 0.068 | inactive: -0.046 | inactive: -0.05 | inactive: 0.013
STK26 (UniProt Q9P289) | inactive: -0.027 | inactive: 0.009 |  | inactive: 0.067 | inactive: -0.005 | inactive: -0.001 | inactive: 0.032 | inactive: 0.054 | inactive: -0.049 | inactive: -0.057
SSRP1 (UniProt Q08945) | inactive: 0.01 | inactive: -0.049 |  | active: -0.23 | inactive: -0.038 | inactive: -0.045 | inactive: 0.048 | inactive: -0.05 | inactive: 0.099 | inactive: -0.052
